This is an account of results in publication PMC12041575.

Sequences of proteins named here, by UniProt entry; tags and fusion partners are left off.
UniProt Q9NRC8: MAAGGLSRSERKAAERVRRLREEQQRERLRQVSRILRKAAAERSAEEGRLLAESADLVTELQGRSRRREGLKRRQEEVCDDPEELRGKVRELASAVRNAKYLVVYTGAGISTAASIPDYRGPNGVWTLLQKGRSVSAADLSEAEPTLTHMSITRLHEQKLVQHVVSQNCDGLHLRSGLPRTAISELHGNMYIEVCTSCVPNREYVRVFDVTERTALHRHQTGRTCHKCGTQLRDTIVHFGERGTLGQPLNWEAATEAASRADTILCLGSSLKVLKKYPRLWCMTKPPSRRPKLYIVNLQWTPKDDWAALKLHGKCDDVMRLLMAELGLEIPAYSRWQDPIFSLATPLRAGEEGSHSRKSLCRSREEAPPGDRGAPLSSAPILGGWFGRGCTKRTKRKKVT

The experiment has as its target T1, DExD-box helicase 21 (DDX21) (human (endogenous in HCT116)) (UniProt Q9NR30).
T1 sequence: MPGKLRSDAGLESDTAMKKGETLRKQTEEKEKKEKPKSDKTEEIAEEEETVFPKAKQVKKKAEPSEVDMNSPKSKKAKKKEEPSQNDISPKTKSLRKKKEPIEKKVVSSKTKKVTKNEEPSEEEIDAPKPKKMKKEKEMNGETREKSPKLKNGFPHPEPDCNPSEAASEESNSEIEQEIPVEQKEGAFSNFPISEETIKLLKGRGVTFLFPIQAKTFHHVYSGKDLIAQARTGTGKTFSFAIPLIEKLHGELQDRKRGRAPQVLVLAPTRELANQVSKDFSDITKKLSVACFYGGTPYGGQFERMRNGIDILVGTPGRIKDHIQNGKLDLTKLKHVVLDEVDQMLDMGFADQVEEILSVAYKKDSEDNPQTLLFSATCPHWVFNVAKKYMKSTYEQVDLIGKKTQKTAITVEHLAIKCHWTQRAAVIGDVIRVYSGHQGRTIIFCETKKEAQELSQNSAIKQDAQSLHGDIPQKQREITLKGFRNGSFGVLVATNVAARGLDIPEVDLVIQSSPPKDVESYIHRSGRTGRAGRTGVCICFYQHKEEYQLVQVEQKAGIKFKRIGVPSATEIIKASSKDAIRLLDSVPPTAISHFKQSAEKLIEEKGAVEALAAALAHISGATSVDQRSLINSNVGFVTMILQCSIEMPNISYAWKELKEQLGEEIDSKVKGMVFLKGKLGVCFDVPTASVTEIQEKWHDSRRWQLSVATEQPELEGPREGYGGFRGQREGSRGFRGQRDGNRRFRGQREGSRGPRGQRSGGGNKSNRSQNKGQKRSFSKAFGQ
The experiment is described as follows: co-IP; Co-IP and western blotting; cells and bait not given.

Results are given in words; binding and its absence hold for the method and conditions named. Binding seen in cells or lysates may run through a third protein. Some binding calls cover weakened binding; strength is not graded here.

“sirtuin 7 (SIRT7) (from UniProt Q9NRC8 1-400)”: the binding result is “binds”.
